From patent US5175253A, “Binding peptides” (Washington University, priority 1991, dated 1992)
Not every detail of the peptide structures is certain; ends, links or a residue may be inferred.

Test system: SEC receptor
Assay: Competition for binding to, and cross-linking of, the SEC receptor of HepG2 cells
Parameters: species or system human

CSCC[C@H](NC(=O)[C@H](CC(C)C)NC(=O)CNC(=O)[C@H](Cc1ccccc1)NC(=O)[C@H](Cc1ccccc1)NC(=O)[C@H](CCC(N)=O)NC(=O)[C@H](CCC(N)=O)NC(=O)[C@@H]1CCCN1C(=O)[C@H](CCCCN)NC(=O)[C@@H]1CCCN1C(=O)[C@@H](N)CCCNC(=N)N)C(N)=O [substance P]
competition for binding to, and cross-linking of, the SEC receptor: compete for binding to, and cross-linking of, the SEC receptor
